Percent effect of library compounds

Source: ChEMBL document CHEMBL3988442, “University of Dundee, Small-Polar-MMV Screening Library” (2021).

T. brucei: 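Whole-parasite assay of Trypanosoma brucei over 72 hours; the read-out is not stated. Compounds at 30 µM. Direction is inferred from retests: higher values go with stronger inhibition. Values scatter widely below zero; nearly all retest evidence comes from the higher of the two concentrations used. About 64,000 compounds were tested under these conditions; 1.5% (about 940) showed 50% or more at least once.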
Leishmania in macrophages: 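Cell assay of Leishmania donovani living inside macrophages; the read-out is not stated. Compounds at 30 µM. The record gives no direction; compounds that gave an IC50 in retests scored well above the rest, so higher reads as stronger inhibition. About 69,000 compounds were tested under these conditions; 1.5% (about 1,000) showed 50% or more at least once.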
Toxoplasma: 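Assay of Toxoplasma gondii numbers, read through their beta-galactosidase reporter with a colour substrate. Concentration: 10 µM. Higher reads as fewer parasites (inferred from which compounds were picked for retests). Size under these conditions: about 67,000 compounds, about 260 of them at 50% or above in at least one test.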

Results are given as percent effect.
How 0% and 100% were set is not recorded. Most values in the screen are low, and negative values occur.
Compounds were drawn at random from those tested, without regard to their results.
Two or more numbers in one place are separate tests of the same structure; such repeats can differ widely.
A dash means the value is not listed here; it may have been measured.

| compound | T. brucei | Leishmania in macrophages | Toxoplasma |
|---|---|---|---|
| `CCOc1ccc(C2C3=C(O)OCC3=Nc3nc(SC)nc(N)c32)cc1` (centres undefined) | 5.426 | 4.994 | -28.74 |
| `CCc1cnc(CN(C)C(C)C(=O)N2CCc3ccccc3C2)s1` (centres undefined) | -39.77 | 1.692 | 3.78 |
| `Cc1cnn(CC2CCCCN2C(=O)c2ccc(N(C)C)nc2)c1` (centres undefined) | - | 13.02 | 0.4955 |
| `COc1ccc(CNC(=O)CNc2cc3c(cc2Cl)OCCCO3)cc1` | -14.9 | 11.16 | 1.861 |
| `COc1nn(C)c2c1CCCN(S(=O)(=O)c1cccc(F)c1)C2` | -82.77 | 11.34 | 13.58 |
| `Cc1cc(C(=O)N2CCCC3(C=Cc4ccccc4O3)CC2)cc(=O)[nH]1` (centres undefined) | -17.18 | 27.69 | 6.204 |
| `O=C(CNc1cc(-n2cnnn2)ccc1F)NCc1ccccc1` | -32.21 | 43.45 | 0.4049 |
| `OCC1(CNC2CCc3cc4c(cc32)OCCO4)CC1` (centres undefined) | -25.76 | 1.487 | 0.4764 |
| `CN(CCN1CCCCC1)C(=O)c1cc(CN2CCOCC2)on1` | -60.28 | 28.89 | 9.305 |
| `Cc1nccc(C2CCCN(S(=O)(=O)N3CCOCC3)C2)n1` (centres undefined) | -13.12 | 30.77 | 2.519 |
| `O=C(CCCOCc1ccccc1)N1CCCC(n2cncn2)C1` (centres undefined) | -15.43 | 23.19 | 2.944 |
| `CC(C)CC(=O)NCc1cccc(OCCN(C)C2CCOCC2)c1` | -30.45 | -5.652 | 0.7585 |
| `Cc1nccn1-c1ccc(CN2CC3C[C@@H](O)CN3C[C@@H]2C)cc1` (some centres undefined) | - | -0.7284 | - |
| `Cc1nc(N2CCCC2)nc(C)c1NS(=O)(=O)c1ccccc1F` | 14.06 | -5.03 & 17.1 | 4.376 |
| `CC(=O)N1CC(=O)N(c2ccccc2)CC12CCN(Cc1ccsc1)C2` (centres undefined) | 9.185 | 18.15 | 12.68 |
| `O=C(O)C(F)(F)F.[H][C@]12CCN(c3ncccn3)C[C@@]1([H])CN(Cc1cccnc1OC)C2` | -7.481 | 28.82 | -3.246 |
| `CN(Cc1cccc(O)c1)C(=O)Nc1cccnc1N1CCCC1` | -15.31 | -19.37 | -23.37 |
| `COc1ccc2c(C)nc(N3CCN([C@H]4CCCC[C@@H]4O)CC3)nc2c1` | -43.59 | -25.34 | -3.277 |
| `COCCCNC(=O)CN(C)C(=O)c1ccc(OC)cc1O` | - | 24.99 | 8.799 |
| `Cc1cnn(C2CCCN(C(=O)c3cccc(Cn4ccnc4)c3)C2)c1` (centres undefined) | 3.946 | 19.16 | -1.181 |
| `CCOc1ccc(C(=O)Nc2c(C)nc3ccc(Cl)cn3c2=O)cc1` | -52.61 | 7.848 & 7.732 | 15.82 |
| `CCc1ccc(C(=O)N2CCCC(c3nn[nH]n3)C2)cc1` (centres undefined) | -32.04 | 9.554 | 4.606 |
| `Cc1nc(CC(C)C)sc1C(=O)N1CCC(C2(C)OCCO2)CC1` | 8.161 | -1.384 | -8.857 |
| `O=C(O)C(F)(F)F.[H][C@@]12COC[C@]1(CNC(=O)c1ccco1)CN(Cc1cnn(C)c1)C2` | -16.9 | -2.896 | -16.59 |
| `CNS(=O)(=O)c1ccc(C(=O)Nc2ccc3c(c2)C(=O)NC3)cc1` | 31.42 | 29.28 | 0.4965 |
| `Cc1sc(CS(C)(=O)=O)nc1-c1ccc(Cl)cc1` | 0.287 | -31.34 | -5.09 |
| `CN(C)Cc1nnc(C2CCN(c3ncccn3)CC2)n1C1CC1` | -23.42 | -5.615 | 16.35 |
| `CCn1cc(CNC(=O)CCn2ncc3c(Cl)cccc32)cn1` | -18.73 | -93.06 | 6.936 |
| `CCc1noc(CNc2ccc(F)cc2OCC2CC2)n1` | 8.962 | 24.34 | -2.77 |
| `CC(=O)Nc1ncc(S(=O)(=O)N2CCC(C)CC2)s1` | -32.4 | 4.639 | -14.89 |
| `CCN(CC)c1ccc(NS(=O)(=O)c2cnn(C(C)C)c2)cn1` | -32.85 | 27.9 | -7.324 |
| `COC(=O)C(c1ccccc1)N(C)C(=O)c1ccnc(C)n1` (centres undefined) | 5.322 | 22.67 | 5.92 |
| `CC(C)CS(=O)(=O)CC(=O)NC(C)c1nnc2n1CCC2` (centres undefined) | - | 15.21 | -40.24 |
| `O=C(O)C(F)(F)F.[H][C@@]12CCN(Cc3ccco3)C[C@]1(C(=O)NC(C)C)CCO2` | -46.6 | 27.33 | 4.276 |
| `Cc1ccc(N2CCCN(C(=O)CCc3ccsc3)CC2)nn1` | -14.35 | 2.191 | 6.999 |
| `O=C(Nc1cccn(CC(F)(F)F)c1=O)c1ccc(F)cc1` | -49.49 | -18.79 | -2.619 |
| `O=C(O)c1nnn(-c2ccccc2F)c1-c1ccncc1` | -30.69 | -18.54 & 9.666 | -10.16 |
| `[H][C@@]12CCCO[C@]1([H])[C@@H](N(C)Cc1cncnc1)CN2Cc1ccc(C)o1` | -64.84 | 13.06 | -1.862 |
| `CN(C)[C@@H]1CCN(C(=O)Cc2cccs2)[C@H]1Cc1cnn(C)c1.O=C(O)C(F)(F)F` | -292.7 | 10.29 | 17.7 |
| `CN(C)CC1COCCN1C(=O)c1ccccc1C(=O)c1ccccc1.O=CO` (centres undefined) | 9.21 | 22.19 | -23.12 |
| `CCNC(=O)C(C)Oc1ccc(N(C)S(C)(=O)=O)cc1` (centres undefined) | -13.18 | 7.839 | 0.115 |
| `CN(C)S(=O)(=O)c1ccc(-c2nc(C#N)c(NC(C)(C)C)o2)o1.Cl` | 94.64 | 70.96 | 91.6 |
| `O=C(O)C(F)(F)F.[H][C@@]12CCCO[C@]1([H])[C@H](NC(=O)CC1CC1)CN(Cc1ccc(C)s1)C2` | 3.463 | 0.0392 | 18.76 |
| `Cc1ccnc(NC(=O)C2(n3cnnn3)CCCCC2)c1` | -6.093 | -5.02 & 15 | -15.72 |
| `COCCN1CCCC12CCN(C(=O)CC1CCCC1)CC2.O=C(O)C(F)(F)F` | 1.632 | 23.51 | -1.795 |
| `[H][C@@]12CCN(S(=O)(=O)C3CC3)[C@@]1([H])CCN2C(=O)c1ccoc1` | -121.2 | 1.755 | -6.704 |

Repeated from the top, 6 entries:

For CCOc1ccc(C2C3=C(O)OCC3=Nc3nc(SC)nc(N)c32)cc1 (centres undefined) the result was T. brucei: 5.426%; Leishmania in macrophages: 4.994%; Toxoplasma: -28.74%.
For CCc1cnc(CN(C)C(C)C(=O)N2CCc3ccccc3C2)s1 (centres undefined) the result was T. brucei: -39.77%; Leishmania in macrophages: 1.692%; Toxoplasma: 3.78%.
For Cc1cnn(CC2CCCCN2C(=O)c2ccc(N(C)C)nc2)c1 (centres undefined) the result was Leishmania in macrophages: 13.02%; Toxoplasma: 0.4955%.
For COc1ccc(CNC(=O)CNc2cc3c(cc2Cl)OCCCO3)cc1 the result was T. brucei: -14.9%; Leishmania in macrophages: 11.16%; Toxoplasma: 1.861%.
For COc1nn(C)c2c1CCCN(S(=O)(=O)c1cccc(F)c1)C2 the result was T. brucei: -82.77%; Leishmania in macrophages: 11.34%; Toxoplasma: 13.58%.
For Cc1cc(C(=O)N2CCCC3(C=Cc4ccccc4O3)CC2)cc(=O)[nH]1 (centres undefined) the result was T. brucei: -17.18%; Leishmania in macrophages: 27.69%; Toxoplasma: 6.204%.